# In US10857167B2, “Use of oligosaccharide compositions to enhance weight gain” (Children's Hospital Medical Center, priority 2015, dated 2020):
# Further values from the same series stand in other lists.
# Test system: distal small bowel gene expression
# Experiment: RNA sequencing / transcriptional analysis of small bowel 56 days after ICR (2′-FL signature response)
# Type: in vivo, mouse
# Text: Luminal small bowel contents were expressed into AllProtect Tissue Reagent (Qiagen Inc, CA). Bacterial DNA was extracted using the AllPrep DNA/RNA Mini Kit (Qiagen Inc, CA), according to kit instructions and prior to sequencing (described below). Small bowel tissue samples for RNA were placed into RNA Later (Life Technologies, NY). RNA extraction was accomplished following Qiagen RNeasy Plus Kit instruction (Qiagen Inc, CA). All nucleic acid samples were then stored at -80 Celsius until sequenced (described below). Transcriptional analysis was carried out on resected and harvested small bowel samples obtained from operated mice taken to 8 weeks. Murine RNA sequencing libraries were prepared from approximately 1.5 μg RNA using the TruSeq RNA Sample Preparation Kit (Illumina, Calif.) and sequenced using the HiSeq 2000 Sequencing System (Illumina, Calif.) with single-end 50 bp reads. Following removal of primers and barcodes, sequences were aligned to the mm10 genome using reference annotations from UCSC (Rosenbloom et al. (2015) Nucleic acids research 43: […]-681) (n=36,186 entities). Aligned reads were quantified and used to compute reads per kilobase per million mapped reads (RPKM); raw counts were then normalized using the DESeq algorithm and each harvested sample was baselined to its own resected sample. A filter was applied to the data, requiring at least three reads in all samples of at least one of the four experimental conditions (n=14,489 entities). The data discussed in this publication have been deposited in NCBI's Gene Expression Omnibus and are accessible through NCBI Gene Expression Omnibus (GEO) Series accession number GSE72590. Edgar et al. (2002) Nucleic acids research 30: 207-210. In order to characterize the impact of 2'-FL supplementation while accounting for the effect of ileoecal resection, a t-test was applied between resected and harvested samples within control and experimental animals. Significance was set at a p-value of ≤0.05 and a fold change of 3, which generated 2,576 differentially regulated entities across two comparisons. Gene set unions and intersections of the control and experimental gene sets were identified through Venn diagrams. From the master list, the gene list specific to animals supplemented with 2'-FL were removed in order to identify genes differentially regulated only by ICR (n=546 entities); this gene set characterizes the adaptive response. Further, the 2'-FL response (n=2,030 entities) was identified by removing the adaptive response signature described above from the master list, leaving only genes regulated by 2'-FL supplementation after ICR which were not found in the non-supplemented adaptive response. Heatmaps were generated using hierarchical clustering with the Pearson's Centered distance metric and the average linkage rule; both entities and samples were clustered. All genomic analyses described above were performed in Strand NGS (Strand Life Sciences, CA). Gene list functional enrichment was initially discovered using ToppFun, a member of the ToppGene Suite. Chen et al. (2009) Nucleic acids research 37: […]-311. No statistical correction was selected. Gene lists were further analyzed using ClueGO, a plugin for Cytoscape designed to decipher functionally grouped gene ontology and pathway annotation networks. Bindea et al. (2009) Bioinformatics 25: 1091-1093. At the time of data analysis, the annotation files were updated from sources to Jan. 1, 2015. “GO Term Fusion” was enabled to manage ontologic term redundancy and network specificity was set to medium. Results were restricted to pathways with p≤0.05 using Benjamini-Hochberg correction and Kappa scoring was set to 0.4. Biocyc annotations were assigned a rectangle, gene ontology biologic processes were assigned an ellipse, and […] annotations were assigned a diamond shape. No meaning was assigned to size or color. […]
structure (smiles),measurement,setting,value
"C[C@@H]1O[C@@H](O[C@H]2[C@H](O[C@H]3[C@H](O)[C@@H](O)C(O)O[C@@H]3CO)O[C@H](CO)[C@H](O)[C@@H]2O)[C@@H](O)[C@H](O)[C@@H]1O (stereo partly shown) [2′-FL, 2′-fucosyllactose]",Fold Change (Pre- to Post-op),gene Fam65a,−6.183
same,Fold Change (Pre- to Post-op),gene Fam115a,−3.095
same,Fold Change (Pre- to Post-op),gene Fam171a1,−3.149
same,Fold Change (Pre- to Post-op),gene Fam193a,−3.61
same,Fold Change (Pre- to Post-op),gene Fam214a,−6.502
same,Fold Change (Pre- to Post-op),gene Fam222b,−3.226
same,Fold Change (Pre- to Post-op),gene Fam83h,−3.01
same,Fold Change (Pre- to Post-op),gene Fan1,−9.33
same,Fold Change (Pre- to Post-op),gene Farp1,−3.578
same,Fold Change (Pre- to Post-op),gene Farp2,−3.49
same,Fold Change (Pre- to Post-op),gene Fasn,−6.481
same,Fold Change (Pre- to Post-op),gene Fat1,−3.132
same,Fold Change (Pre- to Post-op),gene Fat4,−4.299
same,Fold Change (Pre- to Post-op),gene Fbf1,−3.031
same,Fold Change (Pre- to Post-op),gene Fbrs,−3.136
same,Fold Change (Pre- to Post-op),gene Fbxl7,−4.025
same,Fold Change (Pre- to Post-op),gene Fbxl16,−4.107
same,Fold Change (Pre- to Post-op),gene Fbxo21,−5.322
same,Fold Change (Pre- to Post-op),gene Fbxo32,−3.63
same,Fold Change (Pre- to Post-op),gene Fbxo42,−3.632
same,Fold Change (Pre- to Post-op),gene Fgd1,−5.778
same,Fold Change (Pre- to Post-op),gene Fgfr1,−8.59
same,Fold Change (Pre- to Post-op),gene Fgfr4,−4.096
same,Fold Change (Pre- to Post-op),gene Fhod3,−4.424
same,Fold Change (Pre- to Post-op),gene Filip1,−5.647
same,Fold Change (Pre- to Post-op),gene Fkbp5,−5.286
same,Fold Change (Pre- to Post-op),gene Flii,−3.259
same,Fold Change (Pre- to Post-op),gene Flnb,−3.975
same,Fold Change (Pre- to Post-op),gene Flt4,−12.72
same,Fold Change (Pre- to Post-op),gene Fmnl1,−8.99
same,Fold Change (Pre- to Post-op),gene Fmnl3,−3.46
same,Fold Change (Pre- to Post-op),gene Fnbp1,−5.008
same,Fold Change (Pre- to Post-op),gene Fndc5,−3.031
same,Fold Change (Pre- to Post-op),gene Fosl2,−3.45
same,Fold Change (Pre- to Post-op),gene Foxj2,−3.612
same,Fold Change (Pre- to Post-op),gene Foxk1,−6.747
same,Fold Change (Pre- to Post-op),gene Foxm1,−4.731
same,Fold Change (Pre- to Post-op),gene Foxo4,−3.091
same,Fold Change (Pre- to Post-op),gene Foxo6,−5.395
same,Fold Change (Pre- to Post-op),gene Foxp2,−4.375
same,Fold Change (Pre- to Post-op),gene Foxp4,−6.371
same,Fold Change (Pre- to Post-op),gene Foxq1,−7.595
same,Fold Change (Pre- to Post-op),gene Fras1,−9.21
same,Fold Change (Pre- to Post-op),gene Frmd4a,−4.517
same,Fold Change (Pre- to Post-op),gene Fryl,−3.885
same,Fold Change (Pre- to Post-op),gene Fto,−4.423
same,Fold Change (Pre- to Post-op),gene Fus,−3.866
same,Fold Change (Pre- to Post-op),gene Fyb,−3.137
same,Fold Change (Pre- to Post-op),gene Fzd3,−3.334
same,Fold Change (Pre- to Post-op),gene Gaa,−4.848
same,Fold Change (Pre- to Post-op),gene Gab2,−4.213
same,Fold Change (Pre- to Post-op),gene Galnt15,−4.552
same,Fold Change (Pre- to Post-op),gene Gap43,−5.641
same,Fold Change (Pre- to Post-op),gene Garem,−5.411
same,Fold Change (Pre- to Post-op),gene Gbf1,−3.378
same,Fold Change (Pre- to Post-op),gene Gbp5,−6.449
same,Fold Change (Pre- to Post-op),gene Gch1,3.039
same,Fold Change (Pre- to Post-op),gene Gdnf,−7.825
same,Fold Change (Pre- to Post-op),gene Gfod1,−3.385
same,Fold Change (Pre- to Post-op),gene Ggn,−4.607
same,Fold Change (Pre- to Post-op),gene Glb1l2,−7.893
same,Fold Change (Pre- to Post-op),gene Glg1,−6.464
same,Fold Change (Pre- to Post-op),gene Gli1,−3.057
same,Fold Change (Pre- to Post-op),gene Gli2,−5.305
same,Fold Change (Pre- to Post-op),gene Gli3,−6.732
same,Fold Change (Pre- to Post-op),gene Glp2r,−3.022
same,Fold Change (Pre- to Post-op),gene Glt1d1,−4.749
same,Fold Change (Pre- to Post-op),gene Gltscr1l,−3.621
same,Fold Change (Pre- to Post-op),gene Glul,−3.246
same,Fold Change (Pre- to Post-op),gene Gm608,−3.514
same,Fold Change (Pre- to Post-op),gene Gm1966,−4.588
same,Fold Change (Pre- to Post-op),gene Gm2115,−4.127
same,Fold Change (Pre- to Post-op),gene Gm2366,−5.055
same,Fold Change (Pre- to Post-op),gene Gm3230,−3.179
same,Fold Change (Pre- to Post-op),gene Gm4759,−7.921
same,Fold Change (Pre- to Post-op),gene Gm4951,−4.905
same,Fold Change (Pre- to Post-op),gene Gm4980,−3.971
same,Fold Change (Pre- to Post-op),gene Gm7694,−4.867
same,Fold Change (Pre- to Post-op),gene Gm8995,−6.994
same,Fold Change (Pre- to Post-op),gene Gm11201,−5.056
same,Fold Change (Pre- to Post-op),gene Gm11747,−5.457
same,Fold Change (Pre- to Post-op),gene Gm15800,−4.229
same,Fold Change (Pre- to Post-op),gene Gm17644,−3.931
same,Fold Change (Pre- to Post-op),gene Gm19361,−4.125
same,Fold Change (Pre- to Post-op),gene Gm21553,−3.449
same,Fold Change (Pre- to Post-op),gene Gna12,−3.382
same,Fold Change (Pre- to Post-op),gene Gnao1,−7.71
same,Fold Change (Pre- to Post-op),gene Gns,−3.391
same,Fold Change (Pre- to Post-op),gene Golga3,−4.67
same,Fold Change (Pre- to Post-op),gene Golga4,−4.088
same,Fold Change (Pre- to Post-op),gene Gpam,−5.656
same,Fold Change (Pre- to Post-op),gene Gpr20,−4.851
same,Fold Change (Pre- to Post-op),gene Gpr31c,−3.595
same,Fold Change (Pre- to Post-op),gene Gpr56,−4.503
same,Fold Change (Pre- to Post-op),gene Gpr65,−6.495
same,Fold Change (Pre- to Post-op),gene Gpr81,−4.653
same,Fold Change (Pre- to Post-op),gene Gpr116,−5.068
same,Fold Change (Pre- to Post-op),gene Gpr126,−3.625
same,Fold Change (Pre- to Post-op),gene Gpr132,−6.545
same,Fold Change (Pre- to Post-op),gene Gprc5b,−4.245
same,Fold Change (Pre- to Post-op),gene Gprc5c,−3.814
same,Fold Change (Pre- to Post-op),gene Grasp,−4.781
same,Fold Change (Pre- to Post-op),gene Grb10,−3.711
same,Fold Change (Pre- to Post-op),gene Grik3,−7.557
same,Fold Change (Pre- to Post-op),gene Grik5,−4.426
same,Fold Change (Pre- to Post-op),gene Grip2,−4.564
same,Fold Change (Pre- to Post-op),gene Grlf1,−4.231
same,Fold Change (Pre- to Post-op),gene Grn,−3.472
same,Fold Change (Pre- to Post-op),gene Grrp1,−3.025
same,Fold Change (Pre- to Post-op),gene Gse1,−6.244
same,Fold Change (Pre- to Post-op),gene Gsk3b,−3.251
same,Fold Change (Pre- to Post-op),gene Gsn,−3.517
same,Fold Change (Pre- to Post-op),gene Gtf3c1,−3.322
same,Fold Change (Pre- to Post-op),gene Gtse1,−3.42
same,Fold Change (Pre- to Post-op),gene H1fx,−5.556
same,Fold Change (Pre- to Post-op),gene Hap1,−4.123
same,Fold Change (Pre- to Post-op),gene Havcr2,−3.277
same,Fold Change (Pre- to Post-op),gene Hcfc1,−3.483
same,Fold Change (Pre- to Post-op),gene Hcn2,−8.181
same,Fold Change (Pre- to Post-op),gene Hdac4,−6.464
same,Fold Change (Pre- to Post-op),gene Hdac7,−3.892
